Out of some 410,000 compounds screened, about 2,000 (0.49%) were called active. This list was built around the results that the source calls inconclusive (neither active nor inactive); the mix of calls is not that of the screen. Calls follow the shape of the full dose curve; tested in HEK293 reporter line. Potencies of inconclusive entries are doubtful fits and often do not repeat.
experiment: qHTS Assay for Foot and Mouth Disease Virus Antivirals: Primary Screen against the MLPCN compound library; details: FMDV antiviral cell-based qHTS; series mostly up to 57.9 µM; also: nearly all actives have a fitted effect of over 55% in size
Potency is read from the fitted curve at half-maximal effect.

SMILES	Potency
O=C(Cc1ccccc1)NCC(=O)OCc1ccccc1F	inactive
CC(=O)c1sc(NC(=O)C2CCN(C(=O)c3ccc(F)cc3)CC2)nc1-c1ccccc1	inconclusive: 31.6 µM [inhibitor, partial curve, poor fit]
CC1=NN(C(N)=S)C(=O)C1N=Nc1ccc([N+](=O)[O-])cc1 (stereo not given)	inconclusive: 20 µM [inhibitor, partial curve]
O=C(O)c1ccc(NC2=C/C(=N/S(=O)(=O)c3cccs3)c3ccccc3C2=O)cc1	inconclusive: 10 µM [inhibitor, partial curve, poor fit]
Cc1ccsc1C(=O)N1CCCC(C)(C(=O)O)C1 (stereo not given)	inconclusive: 12.6 µM [inhibitor, partial curve]
C=CCn1c(SCC(=O)N2CCN(C(=O)c3ccco3)CC2)nc2sc(CC)cc2c1=O	inconclusive: 17.8 µM [inhibitor, partial curve]
CC(C)NC(=S)NN(c1ccccc1)c1ccccc1	inactive
COc1cc(C#Cc2c(-c3cncn3C)n(C)c3ccc(-c4ccc(OC)c(OC)c4)cc23)cc(OC)c1	inconclusive: 7.08 µM [inhibitor, partial curve]
CC(C)Nc1nc(Oc2ccc(Cl)cc2)cc(C(F)(F)F)n1	inconclusive: 25.1 µM [inhibitor, single point]
COc1ccc2c(c1)c1c(c(=O)n(Cc3ccccc3)c(=O)n1CC(=O)Nc1ccccc1OC)n2C	inconclusive: 3.16 µM [inhibitor, full curve]
CC(C)C1NC(=S)N(C2CCCCC2)C1=O (stereo not given)	inactive
Cc1c(/C(O)=C2\C(=O)C(=O)N(CCN(C)C)C2c2ccccc2)cnn1-c1ccccc1 (stereo not given)	inconclusive: 2.51 µM [inhibitor, full curve]
O=C(O)c1ccc(N/N=C/c2ccc3c(c2)OCO3)cc1	inconclusive: 25.1 µM [inhibitor, partial curve, poor fit]
C#CCN(C[C@@H]1[C@@H](OC(=O)NCCCCCC)[C@@H](OC(=O)NCCCCCC)Cn2c(=O)ccc(=O)n21)S(=O)(=O)c1ccc(C)cc1	inconclusive: 12.6 µM [inhibitor, partial curve, poor fit]
Cc1ccccc1-n1c(SCc2c(C)noc2C)nnc1-c1c[nH]c2ccccc12	inactive
CCC1CN(C(=O)N2CCC(C(=O)NCCc3ccc(OC)cc3OC)CC2)c2cc(C)ccc2O1 (stereo not given)	inconclusive: 28.2 µM [inhibitor, partial curve, poor fit]
CC(C)(C)c1ccc(C(=O)CSc2ncn[nH]2)cc1	inconclusive: 39.8 µM [inhibitor, single point]
CCCCCC1C(=O)O[C@H](C)[C@@H](NC(=O)c2cccc(NC=O)c2O)C(=O)OC(C)C1OC(=O)CC(C)C (stereo not given in full)	inconclusive: 39.8 µM [inhibitor, partial curve, poor fit]
Cc1cc(C)nc(N2CCCC(C(=O)Nc3ccc4nc(C)c(C)nc4c3)C2)n1 (stereo not given)	inconclusive: 20 µM [inhibitor, single point]
Cc1ccc(CNC(=O)C(Cc2ccccc2)NS(=O)(=O)c2ccc(Br)s2)cc1 (stereo not given)	inconclusive: 39.8 µM [inhibitor, single point]

SMILES	Potency
Cc1ccc(Sc2ccc(NC(=O)CCl)cc2)c(C)c1	inconclusive: 31.6 µM [inhibitor, partial curve, poor fit]
O=C(NC1CCN(Cc2ccccc2)CC1)c1ccc(Cn2c(=O)c3ccccc3n(Cc3ccc(Cl)cc3)c2=O)cc1	inconclusive: 12.6 µM [inhibitor, partial curve, poor fit]
COc1cccc2cc(-c3nc(-c4ccccc4F)no3)c(=O)oc12	inactive
OCCC1CN(Cc2cccc(OC3CCCC3)c2)CCN1Cc1ccsc1 (stereo not given)	inconclusive: 14.1 µM [inhibitor, partial curve]
NC(=O)CSc1ncnc2c1nnn2Cc1ccc(F)cc1	inconclusive: 35.5 µM [inhibitor, partial curve, poor fit]
Cc1occc1C(=O)O/N=C(\N)c1ccccc1	inconclusive: 20 µM [inhibitor, single point]
CCN(C(=O)CSc1nc(C)nc2sc3c(c12)CCC3)C1CCS(=O)(=O)C1 (stereo not given)	inconclusive: 14.1 µM [inhibitor, partial curve, poor fit]
COC1=CC(=O)c2ccccc2C1=O	inactive
COC(=O)c1ccc(COc2cccn3c(N(C)C(=O)CCC4CCCC4)c(C)nc23)cc1	inconclusive: 35.5 µM [inhibitor, single point]
COc1cccc(C(=O)CC(=O)C(=O)Nc2cccc([N+](=O)[O-])c2C)c1	inconclusive: 7.08 µM [inhibitor, partial curve, poor fit]
Brc1ccc(-c2nc(-c3ccccn3)no2)o1	inconclusive: 15.8 µM [inhibitor, single point]
Cn1c2ccccc2c(=O)c2ccc(C#CC3(O)CCCCC3)cc21	active: 17.8 µM
COc1cccc(/C=C/C(=O)c2c(O)cc(C)oc2=O)c1O	inconclusive: 20 µM [inhibitor, partial curve, poor fit]
O=C(CSc1nnc(-c2cccnc2)n1Cc1ccco1)c1ccc(Br)cc1	inconclusive: 20 µM [inhibitor, single point]
COC(=O)c1cn[nH]c1NC(=S)Nc1ccc(Cl)c(Cl)c1	inconclusive: 20 µM [inhibitor, single point]
CCOc1ccc(C(=O)C2CCN(CC(=O)Nc3ccccc3N3CCOCC3)CC2)cc1	inconclusive: 3.16 µM [inhibitor, full curve]
CCS(=O)(=O)N1CCCc2cc(C(=O)Nc3cccc(C(C)=O)c3)ccc21	inconclusive: 31.6 µM [inhibitor, partial curve, poor fit]
COc1ccccc1N=C1SCC(=O)N1c1ccccc1OC	inactive
O=C(NNC1CC(=O)N(c2ccccc2)C1=O)c1ccccc1Cl (stereo not given)	inconclusive: 6.31 µM [inhibitor, full curve]
O=c1[nH]c(O)c(N=Nc2cc([N+](=O)[O-])ccc2O)c(=O)[nH]1	inconclusive: 25.1 µM [inhibitor, partial curve, poor fit]

Exported in CSV form: part of the list above.
SMILES,Potency
O=C(O)c1ccc(NC2=C/C(=N/S(=O)(=O)c3cccs3)c3ccccc3C2=O)cc1,"inconclusive: 10 µM [inhibitor, partial curve, poor fit]"
COc1ccc2c(c1)c1c(c(=O)n(Cc3ccccc3)c(=O)n1CC(=O)Nc1ccccc1OC)n2C,"inconclusive: 3.16 µM [inhibitor, full curve]"
Cc1c(/C(O)=C2\C(=O)C(=O)N(CCN(C)C)C2c2ccccc2)cnn1-c1ccccc1 (stereo not given),"inconclusive: 2.51 µM [inhibitor, full curve]"
Cc1ccccc1-n1c(SCc2c(C)noc2C)nnc1-c1c[nH]c2ccccc12,inactive
Cc1ccc(CNC(=O)C(Cc2ccccc2)NS(=O)(=O)c2ccc(Br)s2)cc1 (stereo not given),"inconclusive: 39.8 µM [inhibitor, single point]"
O=C(NC1CCN(Cc2ccccc2)CC1)c1ccc(Cn2c(=O)c3ccccc3n(Cc3ccc(Cl)cc3)c2=O)cc1,"inconclusive: 12.6 µM [inhibitor, partial curve, poor fit]"
OCCC1CN(Cc2cccc(OC3CCCC3)c2)CCN1Cc1ccsc1 (stereo not given),"inconclusive: 14.1 µM [inhibitor, partial curve]"
COc1cccc(C(=O)CC(=O)C(=O)Nc2cccc([N+](=O)[O-])c2C)c1,"inconclusive: 7.08 µM [inhibitor, partial curve, poor fit]"
O=C(CSc1nnc(-c2cccnc2)n1Cc1ccco1)c1ccc(Br)cc1,"inconclusive: 20 µM [inhibitor, single point]"
O=c1[nH]c(O)c(N=Nc2cc([N+](=O)[O-])ccc2O)c(=O)[nH]1,"inconclusive: 25.1 µM [inhibitor, partial curve, poor fit]"
